# Measured values taken from PubChem BioAssay AID485318 (Broad Institute, 2010).
# Sequences of proteins named here, by UniProt entry; tags and fusion partners are left off. A change or cut given only in a name is not applied to a line headed by its entry.
# UniProt O15379: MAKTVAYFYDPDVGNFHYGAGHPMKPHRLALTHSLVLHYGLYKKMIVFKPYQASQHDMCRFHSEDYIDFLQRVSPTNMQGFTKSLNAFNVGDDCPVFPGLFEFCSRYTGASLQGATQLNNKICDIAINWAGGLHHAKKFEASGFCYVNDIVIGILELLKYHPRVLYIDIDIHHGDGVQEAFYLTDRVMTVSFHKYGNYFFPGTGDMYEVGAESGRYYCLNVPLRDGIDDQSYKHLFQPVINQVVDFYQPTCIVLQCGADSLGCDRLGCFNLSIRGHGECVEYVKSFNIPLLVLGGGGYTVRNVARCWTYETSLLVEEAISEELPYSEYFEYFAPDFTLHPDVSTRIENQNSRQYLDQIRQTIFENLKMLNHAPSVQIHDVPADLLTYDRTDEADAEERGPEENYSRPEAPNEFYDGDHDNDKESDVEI
# Among all 1,400 compounds or so, fewer than 10 were called active.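 How the source made its calls: active means fluorescence-lowering compounds whose fitted half-maximal concentration is at or below ten times the highest valid dose tested; inconclusive means flat curve at 30 to 70% inhibition, or poor fit; inactive means the rest.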 The list shows a part of the results.
# Biological target: Histone deacetylase 3 (Homo sapiens) (UniProt O15379)
# Assay: HDAC3 deacetylase inhibitors, dose response, counter-screen for JMJD2C/GASC1 demethylase inhibitor project, biochemical, fluorescence, cherry-picked samples (AID 485318);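 further: enzyme preincubated with compound before substrate and trypsin were added; 0% = neutral control wells and -100% = SAHA positive control wells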
# Conditions: recombinant HDAC3, fluorogenic peptide/trypsin coupled; at 12 µM (top of the series)
row,SMILES,"activity change, negative = inhibition"
1,COc1cc2c(cc1CNC[C@H]1O[C@@H](n3cnc4c(N)ncnc43)[C@H](O)[C@@H]1O)OCO2,inactive: 0.502%
2,C[C@@H]1CN([C@@H](C)CO)C(=O)c2cc(NC(=O)CCN3CCOCC3)ccc2O[C@@H]1CN(C)C(=O)Nc1ccccc1,inactive: -0.267%
3,Cc1nnc(N/N=C\c2ccc(-c3ccccc3[N+](=O)[O-])o2)n1N,inactive: 0.201%
4,Cc1ccc(C)c(N(C(=O)c2csnn2)C(C(=O)NC2CCCC2)c2cccnc2)c1 (centres undefined),inactive: -1.01%
5,COc1cccc(OC)c1C(=O)NC(=S)N1CCOCC1,inactive: 0.0161%
6,N#Cc1ccc(N=c2ssnc2Cl)cc1,inactive: -0.712%
7,O=C(NCc1cccc(Cl)c1)c1cnn2c1NC(c1ccco1)CC2C(F)(F)F (centres undefined),inactive: -0.0149%
8,COc1cc(/C=N/Nc2ccccc2)ccc1OC(=O)c1cccs1,inactive: 0.964%
9,N#CCN1CCC(c2cc(-c3ccco3)n[nH]2)CC1,inactive: 0.338%
10,Cc1c(C(=O)NCc2cccs2)oc2ccccc12,inactive: 0.326%
11,CCn1c(=O)c(-c2nc3ccccc3[nH]2)c(O)c2ccccc21,inactive: 0.252%
12,CS(=O)(=O)N(CC(=O)NCc1ccco1)c1ccccc1Cl,inactive: 0.299%
13,CCOC(=O)C1=C(C)NC2=C(C(=O)CCC2)C1c1coc2ccccc2c1=O (centres undefined),inactive: 0.15%
14,COc1ccc(NC(=O)N(C)C[C@@H]2Oc3c(NC(=O)Nc4c(C)noc4C)cccc3C(=O)N([C@@H](C)CO)C[C@@H]2C)cc1,inactive: -0.0525%
15,C[C@H](CO)N1C[C@H](C)[C@H](CN(C)Cc2ccc(Oc3ccccc3)cc2)Oc2ccc(NC(=O)Nc3cccc4ccccc34)cc2CC1=O,inactive: 1.26%
16,Cc1ccc(NC(=O)c2cccc3c2C(=O)N(C2CCCCC2)C3)c(C)c1,inactive: 0.767%
17,FC(F)(F)c1cccc(NCc2cn3cccnc3n2)c1,inactive: 0.0714%
18,OC[C@H]1O[C@@H]2O[C@H]3[C@H](O)[C@@H](O)[C@@H](O[C@H]4[C@H](O)[C@@H](O)[C@@H](O[C@H]5[C@H](O)[C@@H](O)[C@@H](O[C@H]6[C@H](O)[C@@H](O)[C@@H](O[C@H]7[C@H](O)[C@@H](O)[C@@H](O[C@H]1[C@H](O)[C@H]2O)O[C@@H]7CO)O[C@@H]6CO)O[C@@H]5CO)O[C@@H]4CO)O[C@@H]3CO,inactive: -0.216%
19,Cc1cccc(NC(=O)C2CCCN(S(=O)(=O)c3c(C)nn(C)c3C)C2)n1 (centres undefined),inactive: 0.129%
20,Cc1noc(C)c1COc1ccc(C(=O)OC(C)C(=O)Nc2ccc(N3CCOCC3)cc2)cc1 (centres undefined),inactive: 0.0949%
21,O=C(NCc1ccccc1Br)c1cccc2c1C(=O)c1ccc(N3CCC(Cc4ccccc4)CC3)cc1S2(=O)=O,inactive: 0.568%
22,CCN1c2ccccc2-c2nc3ccccc3n2C1c1ccccn1 (centres undefined),inactive: 0.416%
23,Cn1nnnc1SCC(=O)NCC(=O)c1ccccc1,inactive: 0.00764%
24,Cc1ccc(C)c(Cn2c(C(=O)OC(C)C)cc3c2ccn3C)c1,inactive: -0.102%
25,O=C(CCN1C(=O)/C(=C/c2ccc(F)cc2)SC1=S)N[C@@H](CO)Cc1ccccc1,inactive: -0.0269%
26,C[C@H](CO)N1C[C@H](C)[C@@H](CN(C)S(=O)(=O)c2cccs2)Oc2c(NC(=O)CCC(F)(F)F)cccc2C1=O,inactive: -1.42%
27,O=c1c2ccccc2c(C=NCCCN2CCOCC2)c(O)n1Cc1ccccc1,inactive: 0.813%

# Grouped by structure, the entries above with two or more sulfur atoms.
row,SMILES,"activity change, negative = inhibition"
6,N#Cc1ccc(N=c2ssnc2Cl)cc1,inactive: -0.712%
25,O=C(CCN1C(=O)/C(=C/c2ccc(F)cc2)SC1=S)N[C@@H](CO)Cc1ccccc1,inactive: -0.0269%
26,C[C@H](CO)N1C[C@H](C)[C@@H](CN(C)S(=O)(=O)c2cccs2)Oc2c(NC(=O)CCC(F)(F)F)cccc2C1=O,inactive: -1.42%

# A stretch from further up, as a working copy:
row,SMILES,"activity change, negative = inhibition"
14,COc1ccc(NC(=O)N(C)C[C@@H]2Oc3c(NC(=O)Nc4c(C)noc4C)cccc3C(=O)N([C@@H](C)CO)C[C@@H]2C)cc1,inactive: -0.0525%
15,C[C@H](CO)N1C[C@H](C)[C@H](CN(C)Cc2ccc(Oc3ccccc3)cc2)Oc2ccc(NC(=O)Nc3cccc4ccccc34)cc2CC1=O,inactive: 1.26%

# The results go on.

row,SMILES,"activity change, negative = inhibition"
1,CC(C)NC(=O)N(C)C[C@H]1Oc2ccc(NS(=O)(=O)c3ccccc3)cc2C(=O)N([C@H](C)CO)C[C@H]1C,inactive: 0.293%
2,Cc1cc(NS(=O)(=O)c2ccc(Nc3nc(-c4sc(N)nc4C)cs3)cc2)no1,inactive: 0.426%
3,O=C(c1cccc(C(F)(F)F)c1)N1CCCC1,inactive: -1.01%
4,O=C(Nc1c(Cl)cccc1Cl)c1cc(-c2ccco2)on1,inactive: -0.602%
5,COc1ccc(CNCC(=O)Nc2sccc2C#N)cc1,inactive: -0.369%
6,COc1ccc(OC)c(Nc2nc(-c3cccs3)cs2)c1,inactive: -0.322%
7,O=C1NC(=S)N/C1=C/c1cc2c(cc1[N+](=O)[O-])OCO2,inactive: -0.112%
8,Cc1ccc(CNC(=O)CCC2CCCN(Cc3ccc4cccc(F)c4n3)C2)o1 (centres undefined),inactive: 0.3%
9,COc1ccc(C(=O)NCc2nnc(SCC(=O)N3CCc4ccccc43)o2)cc1OC,inactive: -0.675%
10,C#CCOCCOCCOCCNc1nc(N2CCN(C(=O)[C@H](CCCCN)n3cc(CN)nn3)CC2)nc(N2CCN(C(=O)[C@H](CCC(=O)O)n3cc([C@@H](N)CCSC)nn3)CC2)n1,inactive: -0.309%
11,COCCNC(=S)N1CCN(C)CC1,inactive: 0.121%
12,COc1ccc(C(C(C(=O)c2ccco2)N2CCOCC2)N2CCOCC2)cc1 (centres undefined),inactive: -0.449%
13,c1cc2c(cc1C1CCCCC1)c1c3n2CCCNC3CCC1 (centres undefined),inactive: -0.199%
14,CC1(C)CC(=O)C2=C(C1)OC(N)=C(C#N)C2C#Cc1ccccc1 (centres undefined),inactive: 0.109%
15,COc1ccc(CCNC(=O)c2cccc(NS(=O)(=O)c3ccccc3F)c2)cc1OC,inactive: 0.204%
16,CC(C)c1ccc(NC2CCCN(C(=O)CCN3CCCCC3=O)C2)cc1 (centres undefined),inactive: 0.859%
17,CCOC(=O)c1c(S(=O)(=O)N2CCN(c3ccc(F)cc3)CC2)c(C)n(C)c1C,inactive: 0.311%
18,CCOC(=O)c1[nH]c(CSc2nnnn2-c2ccccc2C)c(C(=O)OCC)c1C,inactive: 0.233%
19,COc1ccc(/C=C(/C(=O)NCc2ccccc2)c2ccccc2)cc1,inactive: 0.155%
20,O=C(O)CSc1nnc(COc2cccc3cccnc23)n1-c1cccc(C(F)(F)F)c1,inactive: 0.166%
21,Cc1nnc(N2C(=O)C(=O)/C(=C(/O)c3ccc4c(c3)CC(C)O4)C2c2ccccc2F)s1 (centres undefined),inactive: 0.641%
22,O=C(NCC1CCCO1)Nc1ccccc1 (centres undefined),inactive: -0.325%
23,O=C(Nc1ccc(-c2csc(Nc3ccc(Cl)cc3)n2)cc1)c1ccccc1,inactive: -0.106%
24,O=C(CC1C[C@H](C(=O)N2CCCCC2)[C@@]2(CCc3ccccc3)c3[nH]c4ccccc4c3CCN2C1=O)NCCC1=CCCCC1 (some centres undefined),inactive: 0.41%
25,Nc1ncnc2c1ncn2[C@@H]1O[C@H](CNCC#Cc2ccccc2)[C@@H](O)[C@H]1O,inactive: 0.255%
26,COc1ccc(NC(=O)c2cccc(N3C(=O)C4CC=C(C)CC4C3=O)c2)c(OC)c1 (centres undefined),inactive: 1.19%
27,COc1cc(-c2nnco2)cc(OC)c1OC,inactive: -0.379%

row,SMILES,"activity change, negative = inhibition"
1,COc1ccccc1OCCOCCn1cnc2ccccc2c1=O,inactive: -0.761%
2,COc1ccc(-c2cc3c(=O)n(CC(=O)NCc4cccnc4)nc(C)n3n2)cc1,inactive: 0.0429%
3,COc1ccc(C(=O)N2CCC(C(=O)NCc3ccccn3)CC2)cc1,inactive: 0.0097%
4,CC(=O)c1c(Nc2ccccc2)sc(C(=O)c2ccccc2)c1C,inactive: -0.4%
5,O=C(Cn1c(=O)sc2ccccc21)NCc1ccco1,inactive: 0.819%
6,CCC(C)C(NC(=O)OC(C)(C)C)C(=O)NC(C(=O)N1CCCC1C(N)=O)C(C)CC (centres undefined),inactive: 0.796%
7,COC(=O)C1CCN(C(=O)COC(=O)COc2ccc(C#N)cc2)CC1,inactive: -0.153%
8,CCOc1cc(NC(=O)c2ccco2)c(OCC)cc1NC(=O)c1ccco1,inactive: 0.0887%
9,Cc1ccccc1C(=O)OCCCN=C1NS(=O)(=O)c2ccccc21,inactive: -0.82%
10,COc1cccc(C(c2c(C)[nH]n(-c3ccccc3)c2=O)c2c(C)[nH]n(-c3ccccc3)c2=O)c1O,inactive: 0.24%
11,C[C@H](CO)N1C[C@H](C)[C@@H](CN(C)Cc2ccc(Cl)c(Cl)c2)Oc2c(NS(=O)(=O)c3cn(C)cn3)cccc2C1=O,inactive: -0.162%
12,O=C(COC(=O)c1cccc(S(=O)(=O)NCc2ccccc2)c1)Nc1ccccc1OC(F)F,inactive: -0.814%
13,COc1ccccc1/C=C1/SC(=S)N(C(C)C(=O)NC2C=CS(=O)(=O)C2)C1=O (centres undefined),inactive: 0.888%
14,CCN(CC)S(=O)(=O)c1ccc(N2CCOCC2)c(NC(=O)c2ccc3c(c2)OCCO3)c1,inactive: -0.353%
15,CCNC(=O)C/C(C)=N/NC(=O)C12CC3CC(CC(C3)C1)C2,inactive: -0.0941%
16,COC(=O)[C@]1(Cc2ccccc2)N[C@H](CN(C)C(=O)Nc2ccccc2)[C@@H]2C(=O)N(C)C(=O)[C@@H]21,inactive: 0.446%
17,O=C(OCc1nnc(-c2ccccc2)o1)c1cc(S(=O)(=O)N2CCOCC2)c(Cl)cc1Cl,inactive: -0.233%
18,CN1C(=O)Cc2cc(S(=O)(=O)NCCc3ccc(Cl)cc3)ccc21,inactive: -0.189%
19,COc1cc(NS(=O)(=O)c2ccc(NC(=O)c3ccc(C)o3)cc2)nc(OC)n1,inactive: 0.178%
20,Cc1c(C(=O)Nc2ccc3c(c2)OCO3)sc2ncn(CC(=O)N3CC(C)CC(C)C3)c(=O)c12 (centres undefined),inactive: -0.0617%
21,COc1ccc(NC(=O)Nc2cccc3c2O[C@H](CN(C)C(=O)NC(C)C)[C@@H](C)CN([C@H](C)CO)C3=O)cc1,inactive: -0.142%
22,CCn1c(SCC(=O)N2CCc3ccccc32)nnc1-c1ccco1,inactive: 0.152%
23,CCOC(=O)c1oc2ccccc2c1COC(=O)C(C)NC(=O)c1ccco1 (centres undefined),inactive: 0.721%
24,CC1=NN(c2nc(-c3ccc(C#N)cc3)cs2)C(=O)C1,inactive: 0.637%
25,Cc1cccc(N2CC(C(=O)Nc3nnc(SCC(=O)Nc4nccs4)s3)CC2=O)c1 (centres undefined),inactive: 0.958%
